PubChem BioAssay AID248 (DTP/NCI, 2004)
The list shows only some results of the screen, not a fair sample: it gathers tests that were run many times, whatever their T/C, doses with no T/C, and many T/C values between a quarter and a half above the control. Other doses and runs of a compound stand elsewhere. T/C gives the treated animals as a percentage of the vehicle group. Some doses have a count of surviving animals in place of a T/C: the source holds a T/C of zero for them, seemingly a mark for toxic or unscored doses. Some survivor counts are full or nearly so, which does not show that the dose was tolerated: survival well below the control is almost never listed, so the zero probably covers shortened survival too. Counts of survivors are from the toxicity check (mostly the fifth day) where no day follows; animals may have died later. Schedule codes are those of the source, taken here to give the interval after Q, in days (D) or hours (H), and the number of doses after X. Some schedules carry Z or #; the key to these is not given. For survival time, this PubChem deposit counts one and a half times the control or more as active, and values a quarter to a half above the control carry no call in these data; other NCI protocols may use other cut-offs.

System: L1210 leukemia ip in BDF1 mice, survival T/C
Assay: NCI In Vivo Anticancer Drug Screen. Data for tumor model L1210 Leukemia (intraperitoneal) in B6D2F1 (BDF1) mice
Settings: T/C endpoint: mean survival time, higher T/C = longer survival
[1] = dose: 100.0 mg/kg/injection, schedule: Q04DX003 (ip), vehicle: saline
[2] = dose: 200.0 mg/kg/injection, schedule: Q04DX003 (ip), vehicle: saline
[3] = dose: 400.0 mg/kg/injection, schedule: Q04DX003 (ip), vehicle: saline
[4] = dose: 200.0 mg/kg/injection, schedule: Q01DX001 (ip), vehicle: saline
[5] = dose: 300.0 mg/kg/injection, schedule: Q01DX001 (ip), vehicle: saline
[6] = dose: 400.0 mg/kg/injection, schedule: Q01DX001 (ip), vehicle: saline
[7] = dose: 100.0 mg/kg/injection, schedule: Q04DX003 (ip), vehicle: Klucel (hydroxypropylcellulose) (HPC)
[8] = dose: 400.0 mg/kg/injection, schedule: Q04DX002 (ip), vehicle: saline with Tween-80

Which results are given for `Br/C=C/C[N+]12CN3CN(CN(C3)C1)C2`?
survivor count [1]: 0 of 6; survivor count [2]: 0 of 6; survivor count [3]: 0 of 6

For `S=C([S][Sb]([c]1ccccc1)[c]1ccccc1)N(c1ccccc1)c1ccccc1`, which survivor count (dose: 80.0 mg/kg/injection, schedule: Q01DX001 (ip), vehicle: other) is on record?
The survivor count was 0 of 6.

And the survivor count (dose: 100.0 mg/kg/injection, schedule: Q01DX001 (ip), vehicle: other)?
Its survivor count is 0 of 4.

And the survivor count (dose: 200.0 mg/kg/injection, schedule: Q01DX001 (ip), vehicle: other)?
Its survivor count is 1 of 4.

What about the survivor count (dose: 400.0 mg/kg/injection, schedule: Q01DX001 (ip), vehicle: other) of the same compound?
Its survivor count is 0 of 4.

With `FC1(F)SC2CC/C=C\CCC2C1(F)F` (stereo not drawn) as the compound, how does the survivor count (dose: 6.0 mg/kg/injection, schedule: Q01DX009 (ip), vehicle: Klucel (hydroxypropylcellulose) (HPC)) read?
The survivor count was 0 of 6.

And the survivor count (dose: 6.25 mg/kg/injection, schedule: Q04DX003 (ip), vehicle: Klucel (hydroxypropylcellulose) (HPC))?
The survivor count was 0 of 6.

And the survivor count (dose: 12.5 mg/kg/injection, schedule: Q04DX003 (ip), vehicle: Klucel (hydroxypropylcellulose) (HPC))?
The survivor count was 0 of 6.

And the survivor count (dose: 25.0 mg/kg/injection, schedule: Q04DX003 (ip), vehicle: Klucel (hydroxypropylcellulose) (HPC))?
Its survivor count is 6 of 6.

What about the survivor count (dose: 50.0 mg/kg/injection, schedule: Q04DX003 (ip), vehicle: Klucel (hydroxypropylcellulose) (HPC)) of the same compound?
Its survivor count is 6 of 6.

What does the source list for `COc1cc(NC(=O)CN(CCCl)CCCl)cc(OC)c1OC`?
T/C (dose: 30.0 mg/kg/injection, schedule: Q01DX009 (ip), vehicle: saline): 135 % of control; T/C (dose: 45.0 mg/kg/injection, schedule: Q01DX009 (ip), vehicle: saline): 135 % of control; T/C (dose: 66.0 mg/kg/injection, schedule: Q01DX009 (ip), vehicle: saline): 135 % of control; T/C (dose: 88.8 mg/kg/injection, schedule: Q01DX001 (ip), vehicle: carboxymethylcellulose (CMC)): 140 % of control; T/C (dose: 133.0 mg/kg/injection, schedule: Q01DX001 (ip), vehicle: saline): 127 % of control; T/C (dose: 200.0 mg/kg/injection, schedule: Q01DX001 (ip), vehicle: carboxymethylcellulose (CMC)): 140 % of control; T/C [4]: 132 % of control; T/C (dose: 300.0 mg/kg/injection, schedule: Q01DX001 (ip), vehicle: carboxymethylcellulose (CMC)): 140 % of control; T/C [5]: 126 % of control

With `COc1ccc(OC)c2c(C(O)CNC34CC5CC(CC(C5)C3)C4)cc(-c3ccc(Cl)cc3)nc12` (stereo not drawn) as the compound, how does the survivor count (dose: 100.0 mg/kg/injection, schedule: Q01DX009 (ip), vehicle: other) read?
The survivor count was 6 of 6.

And the survivor count (dose: 200.0 mg/kg/injection, schedule: Q01DX009 (ip), vehicle: other)?
Its survivor count is 6 of 6.

And the survivor count (dose: 400.0 mg/kg/injection, schedule: Q01DX009 (ip), vehicle: other)?
Its survivor count is 3 of 6.

Which results are given for `O=C(O)C1C(C(=O)O)C2(Cl)C(Cl)=C(Cl)C1(Cl)C2(Cl)Cl.[Fe]` (stereo not drawn)?
survivor count (dose: 100.0 mg/kg/injection, schedule: Q01DX Z (ip), vehicle: carboxymethylcellulose (CMC)): 6 of 6; survivor count [1]: 6 of 6; survivor count (dose: 150.0 mg/kg/injection, schedule: Q01DX Z (ip), vehicle: carboxymethylcellulose (CMC)): 6 of 6; survivor count [2]: 6 of 6

`COC(=O)c1cc(=O)[nH]c2c1c(=O)n(C)c(=O)n2C` was tested. Which survivor count (dose: 100.0 mg/kg/injection, schedule: Q01DX009 (ip), vehicle: Klucel (hydroxypropylcellulose) (HPC)) did it give?
Its survivor count is 2 of 6.

With `CCN(CC)C(=O)C1(C)CCCC2(C)c3cc(OC(C)=O)ccc3CCC12` (stereo not drawn) as the compound, how does the survivor count (dose: 400.0 mg/kg/injection, schedule: Q01DX009 (ip), vehicle: Klucel (hydroxypropylcellulose) (HPC)) read?
Its survivor count is 5 of 5.

Which survivor count [6] does the source give for `[N-]=[N+]=NC1=NN2NNN=C2C(N)=C1` here?
The survivor count was 2 of 4.

For `CC1(c2ccc[n+](CC(=O)c3ccccc3)c2)OCCO1`, which survivor count [5] is on record?
Its survivor count is 0 of 6.

`CC(=O)c1ccc(N2C(=O)C=CC2=O)cc1` was tested. Which survivor count [7] did it give?
Its survivor count is 0 of 6.

Which results are given for `CSc1ncnc2c1C[P+](Cc1ccccc1)(c1ccccc1)CC2` (stereo not drawn)?
survivor count (dose: 200.0 mg/kg/injection, schedule: Q04DX002 (ip), vehicle: saline with Tween-80): 0 of 3; survivor count [8]: 0 of 3

With `O=C(COc1ccc(Cl)c(Cl)c1)Nc1ccc[n+](Cc2ccc(S(=O)(=O)F)cc2Cl)c1` as the compound, how does the survivor count (dose: 200.0 mg/kg/injection, schedule: Q01DX009 (ip), vehicle: saline with Tween-80) read?
The survivor count was 2 of 6.

What about the survivor count (dose: 400.0 mg/kg/injection, schedule: Q01DX009 (ip), vehicle: saline with Tween-80) of the same compound?
Its survivor count is 0 of 6.

For `Cc1cc(C)c(S(=O)(=O)O)c(Cc2ccc3ccccc3c2)c1`, which survivor count [4] is on record?
The survivor count was 3 of 6.

And the survivor count [6]?
The survivor count was 0 of 6.

What does the source list for `CO[C@H]1C[C@H](O[C@H]2CC[C@]3(C=O)[C@H]4CC[C@]5(C)[C@@H](C6=CC(=O)OC6)CC[C@]5(O)[C@@H]4CC[C@]3(O)C2)O[C@H](C)[C@H]1O[C@@H]1O[C@H](CO[C@@H]2O[C@H](CO)[C@@H](O)[C@H](O)[C@H]2O)[C@@H](O)[C@H](O)[C@H]1O`?
survivor count (dose: 2.5 mg/kg/injection, schedule: Q01DX001 (sc), vehicle: steroid suspending solution): 0 of 6; survivor count (dose: 4.0 mg/kg/injection, schedule: Q01DX001 (sc), vehicle: steroid suspending solution): 0 of 6; survivor count (dose: 5.0 mg/kg/injection, schedule: Q01DX001 (sc), vehicle: steroid suspending solution): 1 of 6; survivor count (dose: 10.0 mg/kg/injection, schedule: Q01DX001 (sc), vehicle: steroid suspending solution): 0 of 6

Which results are given for `Cc1cc(N(CCCCl)CCCCl)ccc1C=Nc1cc(Cl)c(O)c(Cl)c1`?
survivor count [7]: 6 of 6; survivor count (dose: 200.0 mg/kg/injection, schedule: Q04DX003 (ip), vehicle: Klucel (hydroxypropylcellulose) (HPC)): 6 of 6; survivor count (dose: 400.0 mg/kg/injection, schedule: Q04DX003 (ip), vehicle: Klucel (hydroxypropylcellulose) (HPC)): 6 of 6

`CSc1ccc(NC(=O)Oc2ccc(C(=O)OCc3ccccc3)cc2)cc1` was tested. Which survivor count (dose: 200.0 mg/kg/injection, schedule: Q01DX001 (ip), vehicle: saline with Tween-80) did it give?
The survivor count was 6 of 6.

For `O=C1CCCN1.O=C1CCCN1.[Br][Co][Br]`, which T/C (dose: 150.0 mg/kg/injection, schedule: Q01DX009 (ip), vehicle: saline) is on record?
The T/C was 128 % of control.

And the survivor count [2]?
Its survivor count is 3 of 6.

What about the survivor count (dose: 300.0 mg/kg/injection, schedule: Q01DX009 (ip), vehicle: saline) of the same compound?
Its survivor count is 0 of 6.

What about the survivor count [3] of the same compound?
Its survivor count is 0 of 6.

For `COc1ccc(CC2(C#N)c3ccccc3C=CN2C(=O)c2ccccc2)c([N+](=O)[O-])c1OC` (stereo not drawn), which survivor count [8] is on record?
Its survivor count is 3 of 3.

With `CCOc1c(Cl)cc(Cl)cc1C(c1ccc(Cl)cc1S(=O)(=O)O)c1cc(Cl)cc(Cl)c1OCC` as the compound, how does the survivor count (dose: 200.0 mg/kg/injection, schedule: Q04DX003 (ip), vehicle: saline with Tween-80) read?
Its survivor count is 4 of 6.

And the survivor count (dose: 400.0 mg/kg/injection, schedule: Q04DX003 (ip), vehicle: saline with Tween-80)?
The survivor count was 5 of 6.

Which survivor count (dose: 25.0 mg/kg/injection, schedule: Q01DX009 (ip), vehicle: saline with Tween-80) does the source give for `O=C(O)c1cnc(Cl)nc1Nc1ccccc1I` here?
Its survivor count is 6 of 6.

And the survivor count (dose: 50.0 mg/kg/injection, schedule: Q01DX001 (ip), vehicle: saline with Tween-80)?
Its survivor count is 6 of 6.

`Cc1ccc2ccccc2c1OC(C)C(=O)O` (stereo not drawn) was tested. Which survivor count (dose: 400.0 mg/kg/injection, schedule: Q04DX003 (ip), vehicle: alcohol) did it give?
The survivor count was 4 of 6.

With `CC1(C)Cc2cccc(C(=O)CCCN3CCCCC3)c2O1` as the compound, how does the survivor count [4] read?
Its survivor count is 0 of 6.

What about the survivor count [6] of the same compound?
The survivor count was 0 of 6.

How did the survivor count (dose: 200.0 mg/kg/injection, schedule: Q04DX003 (ip), vehicle: saline sonified) turn out when `CCN(CCN)c1cccc(C)c1` was run?
The survivor count was 6 of 6.

And the survivor count (dose: 400.0 mg/kg/injection, schedule: Q04DX003 (ip), vehicle: saline sonified)?
Its survivor count is 0 of 6.

How did the survivor count (dose: 400.0 mg/kg/injection, schedule: Q04DX002 (ip), vehicle: carboxymethylcellulose (CMC)) turn out when `O=C(Nc1ccc(F)cc1)Nc1cccc(O)c1` was run?
Its survivor count is 6 of 6.

How did the survivor count (dose: 20.0 mg/kg/injection, schedule: Q01DX001 (ip), vehicle: saline) turn out when `Cc1cc(Br)c2c(C)ccc(C)c2n1` was run?
The survivor count was 1 of 6.

And the survivor count (dose: 40.0 mg/kg/injection, schedule: Q01DX001 (ip), vehicle: saline)?
The survivor count was 0 of 6.

And the survivor count (dose: 75.0 mg/kg/injection, schedule: Q01DX001 (ip), vehicle: saline)?
Its survivor count is 0 of 6.

What about the survivor count (dose: 80.0 mg/kg/injection, schedule: Q01DX001 (ip), vehicle: saline) of the same compound?
Its survivor count is 0 of 6.

And the survivor count (dose: 150.0 mg/kg/injection, schedule: Q01DX001 (ip), vehicle: saline)?
The survivor count was 0 of 6.

What about the survivor count [5] of the same compound?
The survivor count was 0 of 6.
